Measurements as given in paper PMC5233616, “Structural and functional analyses of human DDX41 DEAD domain” (Protein & Cell, 2016).
Results are given in words; binding and its absence hold for the method and conditions named.

Target: human DDX41 (hDDX41) DEAD domain (human) (UniProt Q9UJV9)
Experiment: multiangle static light scattering; DEAD domain protein in solution; calculated molecular weight 29.3 kDa; both purified

binding: no binding
B1: human DDX41 (hDDX41) DEAD domain (domain or fragment, UniProt Q9UJV9 153-410)
chain: LSMSEERHERVRKKYHILVEGDGIPPPIKSFKEMKFPAAILRGLKKKGIHHPTPIQIQGIPTILSGRDMIGIAFTGSGKTLVFTLPVIMFCLEQEKRLPFSKREGPYGLIICPSRELARQTHGILEYYCRLLQEDSSPLLRCALCIGGMSVKEQMETIRHGVHMMVATPGRLMDLLQKKMVSLDICRYLALDEADRMIDMGFEGDIRTIFSYFKGQRQTLLFSATMPKKIQNFAKSALVKPVTINVGRAGAASLDVIQ
